Among the data in the supplement of paper PMC11348887 are nucleus roundness z-score values, retold here.

Structures can show the parent of a compound that is named as a salt. The list shows a part of the results. Small differences around the control level are noise.

The test system of this test is hPSC-derived cortical neurons (WA09). Kind of test: nucleus roundness z-score vs screen plate; higher = rounder nuclei (more mature). The note with it: 5 µM; treatment: days 7-14 after plating, readout day 21.
As for `COc1ccc2[nH]c([S+]([O-])Cc3ncc(C)c(OC)c3C)nc2n1` (configuration not stated) [Tenatoprazole], the nucleus roundness z-score is -0.123.

`COc1cc([C@@H]2c3cc4c(cc3[C@@H](O[C@@H]3O[C@@H]5CO[C@@H](c6cccs6)O[C@H]5[C@H](O)[C@H]3O)[C@H]3COC(=O)[C@H]23)OCO4)cc(OC)c1O` [Teniposide] yielded a nucleus roundness z-score of -0.0678.

In turn, `COc1cc(OC)c(C=C2C(=O)Nc3ccccc32)c(OC)c1` came in with a nucleus roundness z-score of 0.0792.

`COc1ccc(Cl)cc1C(=O)NCCc1ccc(S(=O)(=O)NC(=O)NC2CCCCC2)cc1` [Glyburide] came in with a nucleus roundness z-score of 0.46.

`Nc1ncn([C@H]2C[C@H](O)[C@@H](CO)O2)c(=O)n1` [Decitabine] showed a nucleus roundness z-score of 0.933.

Molecule `Cc1cc2c(F)c(Oc3ncnn4cc(OC[C@@H](C)OC(=O)[C@H](C)N)c(C)c34)ccc2[nH]1` registered a nucleus roundness z-score of 1.55.

On to `COc1ccc2cc([C@H](C)C(=O)O)ccc2c1` [Naproxen], for which the nucleus roundness z-score was -3.01.

Take `CC[C@H](c1ccc(O)cc1)[C@@H](CC)c1ccc(O)cc1` [Hexestrol]: the nucleus roundness z-score was -0.38.

`N[C@@H](CSCCCO)C(=O)O` [Fudosteine] came in with a nucleus roundness z-score of 0.606.

The molecule `CCc1c(Cl)c(O)c(Cl)c(O)c1C(=O)O[C@H]1[C@H](O)[C@H](OC)[C@H](OC/C2=C\C=C\C[C@H](O)/C(C)=C/[C@H](CC)[C@@H](O[C@@H]3OC(C)(C)[C@@H](OC(=O)C(C)C)[C@H](O)[C@@H]3O)/C(C)=C/C(C)=C/C[C@@H]([C@@H](C)O)OC2=O)O[C@@H]1C` [Fidaxomicin] showed a nucleus roundness z-score of -0.524.

For the molecule `Cc1nc(C#Cc2ccnc(Cl)c2)c(C)n1-c1ccc(OC(F)(F)F)cc1`, the nucleus roundness z-score was 0.308.

The molecule `CCOc1ccn(-c2ccc(F)cc2)c(=O)c1C(=O)Nc1ccc(Oc2ccnc(N)c2Cl)c(F)c1` displayed a nucleus roundness z-score of -0.302.

For the molecule `Cc1c(-c2ccccc2)oc2c(C(=O)OCCN3CCCCC3)cccc2c1=O` [Flavoxate HCl], the nucleus roundness z-score was -0.21.

Regarding `C[C@H](CCC(=O)O)[C@H]1CC[C@H]2[C@@H]3C(=O)C[C@@H]4CC(=O)CC[C@]4(C)[C@H]3CC(=O)[C@]12C` [Dehydrocholic acid], the nucleus roundness z-score was 0.321.

As to `CNC(=O)c1cc(Oc2ccc(NC(=O)Nc3cc(C(C)(C)C)nn3-c3ccc4ncccc4c3)c(F)c2)ccn1` [DCC-2036 (Rebastinib)], the nucleus roundness z-score is 0.441.

In the case of `Cc1cnc(Nc2ccc(N3CCN(C)CC3)cc2)nc1Nc1cccc(S(=O)(=O)NC(C)(C)C)c1`, the nucleus roundness z-score was -1.57.

`CN(C)CCC(c1ccc(Cl)cc1)c1ccccn1` (configuration not stated) [Chlorpheniramine Maleate]: the nucleus roundness z-score was -0.075.

`O=C(NC1CCOCC1)c1ccc(-c2cc(-c3c[nH]nc3-c3ccccn3)ccn2)cc1` gave a nucleus roundness z-score of -7.61.

With `C[C@H](CCC(=O)O)[C@H]1CC[C@H]2[C@@H]3[C@@H](O)C[C@@H]4C[C@H](O)CC[C@]4(C)[C@H]3CC[C@]12C` [Ursodiol], the nucleus roundness z-score is -1.47.

The molecule `CCC/N=C1\S/C(=C\c2ccc(OC[C@H](O)CO)c(Cl)c2)C(=O)N1c1ccccc1C` [Ponesimod] had a nucleus roundness z-score of -2.07.

The molecule `OC[C@H]1O[C@@H](Oc2ccc(O)cc2)[C@H](O)[C@@H](O)[C@@H]1O` [Arbutin] came in with a nucleus roundness z-score of 0.249.

As to `CCCCc1ncc(/C=C(\Cc2cccs2)C(=O)O)n1Cc1ccc(C(=O)O)cc1` [Eprosartan Mesylate], the nucleus roundness z-score was -0.358.

Molecule `CCn1cc(-c2ccnc3[nH]c(-c4cccc(CN(C)C)c4)cc23)c(-c2ccc(NC(=O)N(C)C)cc2)n1` came in with a nucleus roundness z-score of -1.31.

As for `CCOC(=O)[C@@H](N)Cc1ccc(-c2cc(O[C@H](c3ccc(Cl)cc3-n3ccc(C)n3)C(F)(F)F)nc(N)n2)cc1` [Telotristat Etiprate (LX 1606 Hippurate)], the nucleus roundness z-score is -0.313.

For the molecule `COc1ccc(S(=O)(=O)Nc2cccnc2Nc2ccc(O)cc2)cc1`, the nucleus roundness z-score is -1.61.

With `CC(C)c1cnn2c(NCc3ccccc3)cc(NCCCCCCN)nc12`, the nucleus roundness z-score was -0.497.

`Cn1cc(-c2cnn3c(N)c(Br)c([C@@H]4CCCNC4)nc23)cn1` gave a nucleus roundness z-score of 2.44.

The molecule `C[C@@H]1COC(Nc2ccc3ncnc(Nc4ccc(OCc5nccs5)c(Cl)c4)c3c2)=N1` [Varlitinib] yielded a nucleus roundness z-score of 0.0861.

In turn, `COc1ccc(-c2coc3cc(O)cc(O)c3c2=O)cc1` [Biochanin A] gave a nucleus roundness z-score of -1.77.

`CC(C)(O)c1ccccc1CC[C@@H](SCC1(CC(=O)O)CC1)c1cccc(/C=C/c2ccc3ccc(Cl)cc3n2)c1` [Montelukast Sodium] displayed a nucleus roundness z-score of 0.238.

In turn, `CN(C)CCOc1ccc(-c2nc(-c3ccncc3)c(-c3ccc4c(c3)CC/C4=N\O)[nH]2)cc1` had a nucleus roundness z-score of 2.41.

`CC(C)(C)NC(=O)[C@H]1CC[C@H]2[C@@H]3CC[C@H]4NC(=O)C=C[C@]4(C)[C@H]3CC[C@]12C` [Finasteride] displayed a nucleus roundness z-score of -0.0367.
